Assay results: article PMC9598763, “WDR73 Depletion Destabilizes PIP4K2C Activity and Impairs Focal Adhesion Formation in Galloway–Mowat Syndrome” (Biology, 2022)
Results are given in words; binding and its absence hold for the method and conditions named. For part of these data: Binding seen in cells or lysates may run through a third protein. Some entries that bind do so weakly or less than the wild type. Tags and fused reporters may be left off the sequences shown.

Protein sequences, listed by entry. Tags and fused reporters are not part of them.
UniProt Q9HCE0: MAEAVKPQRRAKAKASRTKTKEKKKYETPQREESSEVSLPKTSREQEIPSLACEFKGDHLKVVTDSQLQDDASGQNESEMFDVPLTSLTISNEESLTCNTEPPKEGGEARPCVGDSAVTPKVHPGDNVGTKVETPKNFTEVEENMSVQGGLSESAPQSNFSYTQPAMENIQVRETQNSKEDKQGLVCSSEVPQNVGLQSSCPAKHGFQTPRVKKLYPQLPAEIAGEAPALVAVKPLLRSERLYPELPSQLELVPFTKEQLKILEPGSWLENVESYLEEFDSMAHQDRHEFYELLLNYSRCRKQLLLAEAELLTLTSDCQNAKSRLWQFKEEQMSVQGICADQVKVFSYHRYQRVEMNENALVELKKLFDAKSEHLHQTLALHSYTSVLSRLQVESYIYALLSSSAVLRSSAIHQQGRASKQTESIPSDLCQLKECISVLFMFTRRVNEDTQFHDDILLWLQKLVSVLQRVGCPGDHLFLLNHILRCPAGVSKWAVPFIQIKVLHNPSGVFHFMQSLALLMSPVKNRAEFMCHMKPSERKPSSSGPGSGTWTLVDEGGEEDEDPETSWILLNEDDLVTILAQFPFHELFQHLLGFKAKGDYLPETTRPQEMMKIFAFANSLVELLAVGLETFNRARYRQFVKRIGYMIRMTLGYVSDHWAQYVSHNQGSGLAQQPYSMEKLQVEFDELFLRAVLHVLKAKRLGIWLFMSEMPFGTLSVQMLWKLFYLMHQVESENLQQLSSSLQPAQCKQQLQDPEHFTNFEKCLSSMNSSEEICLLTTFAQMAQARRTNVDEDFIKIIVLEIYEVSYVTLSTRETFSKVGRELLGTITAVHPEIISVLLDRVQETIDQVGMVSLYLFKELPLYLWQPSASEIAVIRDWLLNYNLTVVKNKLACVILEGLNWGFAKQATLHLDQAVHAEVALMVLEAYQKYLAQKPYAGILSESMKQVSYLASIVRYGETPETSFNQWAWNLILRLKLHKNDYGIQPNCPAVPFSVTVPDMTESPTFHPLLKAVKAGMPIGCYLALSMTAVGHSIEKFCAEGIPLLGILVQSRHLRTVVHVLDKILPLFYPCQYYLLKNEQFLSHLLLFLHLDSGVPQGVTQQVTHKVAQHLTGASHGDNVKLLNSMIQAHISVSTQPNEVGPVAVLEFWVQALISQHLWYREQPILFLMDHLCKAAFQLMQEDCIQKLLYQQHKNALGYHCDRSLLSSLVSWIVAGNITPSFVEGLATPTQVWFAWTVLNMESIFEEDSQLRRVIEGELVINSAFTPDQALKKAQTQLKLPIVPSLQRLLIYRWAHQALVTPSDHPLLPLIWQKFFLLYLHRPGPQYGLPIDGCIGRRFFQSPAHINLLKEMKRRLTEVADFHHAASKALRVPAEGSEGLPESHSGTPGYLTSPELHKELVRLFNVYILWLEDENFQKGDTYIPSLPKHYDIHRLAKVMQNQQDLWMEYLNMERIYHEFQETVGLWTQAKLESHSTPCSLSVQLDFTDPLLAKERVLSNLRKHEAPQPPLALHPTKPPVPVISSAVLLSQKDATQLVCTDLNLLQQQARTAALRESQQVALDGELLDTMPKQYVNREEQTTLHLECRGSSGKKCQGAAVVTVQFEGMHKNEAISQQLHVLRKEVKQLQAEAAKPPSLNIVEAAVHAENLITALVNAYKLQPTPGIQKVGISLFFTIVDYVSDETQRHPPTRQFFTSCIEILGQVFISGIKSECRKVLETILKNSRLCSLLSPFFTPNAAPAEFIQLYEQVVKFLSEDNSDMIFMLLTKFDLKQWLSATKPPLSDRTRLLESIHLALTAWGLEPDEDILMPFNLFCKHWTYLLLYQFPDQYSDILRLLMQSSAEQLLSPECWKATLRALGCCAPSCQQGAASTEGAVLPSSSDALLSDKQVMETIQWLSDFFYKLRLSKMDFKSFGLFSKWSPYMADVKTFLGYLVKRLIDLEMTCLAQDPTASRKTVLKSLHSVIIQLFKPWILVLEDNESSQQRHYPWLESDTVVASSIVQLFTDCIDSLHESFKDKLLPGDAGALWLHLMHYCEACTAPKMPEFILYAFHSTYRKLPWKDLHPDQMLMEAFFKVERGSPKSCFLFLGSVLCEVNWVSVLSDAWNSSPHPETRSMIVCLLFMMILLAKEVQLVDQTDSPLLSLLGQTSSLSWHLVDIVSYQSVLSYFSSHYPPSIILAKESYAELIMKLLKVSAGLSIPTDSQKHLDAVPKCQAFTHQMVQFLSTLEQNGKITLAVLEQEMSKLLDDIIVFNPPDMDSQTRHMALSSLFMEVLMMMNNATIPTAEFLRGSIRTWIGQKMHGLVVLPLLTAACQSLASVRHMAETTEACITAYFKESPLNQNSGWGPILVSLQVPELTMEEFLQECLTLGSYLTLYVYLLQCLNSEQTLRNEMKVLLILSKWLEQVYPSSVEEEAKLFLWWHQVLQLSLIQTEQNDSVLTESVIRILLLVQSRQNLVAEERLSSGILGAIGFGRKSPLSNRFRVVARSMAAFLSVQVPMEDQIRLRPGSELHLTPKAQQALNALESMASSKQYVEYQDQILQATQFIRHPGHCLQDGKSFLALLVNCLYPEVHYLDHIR

Legend:
3×HA-WDR73 (human) = target: T1, 3×HA-WDR73 (human) (UniProt Q6P4I2); assay: co-IP; HEK293 cells transfected with 3HA-WDR73 and GFP-Epg5 (or GFP); lysis in 20 mM Tris pH 7.5, 150 mM NaCl, 1% Triton X-100; anti-HA magnetic beads, 4 °C overnight; Western blotting
T1 sequence: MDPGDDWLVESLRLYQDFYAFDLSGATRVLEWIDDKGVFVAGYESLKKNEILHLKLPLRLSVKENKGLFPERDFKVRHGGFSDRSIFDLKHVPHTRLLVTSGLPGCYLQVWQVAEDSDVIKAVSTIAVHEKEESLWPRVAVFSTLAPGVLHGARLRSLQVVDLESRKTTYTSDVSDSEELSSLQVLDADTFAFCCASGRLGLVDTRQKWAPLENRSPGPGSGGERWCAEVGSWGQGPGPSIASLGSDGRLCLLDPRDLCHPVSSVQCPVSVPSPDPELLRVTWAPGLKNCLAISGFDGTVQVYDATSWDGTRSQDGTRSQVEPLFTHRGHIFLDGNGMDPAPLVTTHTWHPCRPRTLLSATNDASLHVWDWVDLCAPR

[1] = target: ectopic P-granules autophagy protein 5 (EPG5) on the HuProt human proteome microarray (human) (UniProt Q9HCE0); assay: peptide or protein array; Cy3-tagged His-WDR73 incubated on the HuProt v4.0 20K Human Proteome Microarray (purified human proteins as N-terminal GST fusions) overnight at 4 °C, washed, scanned; candidates by Z-score > 3; both purified
[2] = target: T2, GST-PIP4K2C fusion protein (UniProt Q8TBX8); assay: pull-down; approximately 100 µg GST or GST-PIP4K2C immobilised on 50 µL Mag-Beads GST; approximately 100 µg His-WDR73 added, overnight at 4 °C; washed five times with PBS; Western blotting; both purified
T2 sequence: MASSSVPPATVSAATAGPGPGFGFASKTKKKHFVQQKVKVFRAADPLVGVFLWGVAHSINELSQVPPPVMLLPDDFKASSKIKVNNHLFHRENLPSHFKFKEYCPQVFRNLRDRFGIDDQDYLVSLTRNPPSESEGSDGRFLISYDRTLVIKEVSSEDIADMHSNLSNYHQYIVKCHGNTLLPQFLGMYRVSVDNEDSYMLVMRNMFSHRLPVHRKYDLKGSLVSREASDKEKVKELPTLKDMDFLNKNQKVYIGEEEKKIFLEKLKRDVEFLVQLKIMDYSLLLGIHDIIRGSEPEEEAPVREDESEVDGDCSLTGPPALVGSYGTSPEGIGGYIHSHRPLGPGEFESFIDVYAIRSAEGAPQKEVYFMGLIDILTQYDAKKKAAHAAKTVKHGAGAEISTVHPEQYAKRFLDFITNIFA

In the case of GFP-hEPG5 (from UniProt Q9HCE0 1-2579), the binding (3×HA-WDR73 (human)) is reported as “binds”.

B1: Cy3-tagged His-WDR73 (natural protein, human, UniProt Q6P4I2 1-378, looked up)
chain: T1 sequence
modifications: labeled with Cy3 (CyDye Protein Labelling CY3 MONO 5-PACK, GE)
notes: WDR73 (WD40-repeat-containing protein), human; Probe of the HuProt microarray; also called recombinant His-WDR73 fusion protein; purified human WDR73 protein; source: recombinant, purified by MerryBio Co., Ltd
In the case of B1, the binding [1] is reported as “binds”.

B2: His-WDR73 fusion protein (protein, UniProt Q6P4I2 1-378)
chain: T1 sequence
B2 was tested, and the binding [2] was “binds”.
